No constants are given. Whether binding was seen depends on the method and setting. In cells and extracts the contact can be indirect. Some results given as binding are weak or reduced against the parent protein; the word gives no strength. Sequences can lack the tags named with a protein.
Tests used:
[1] = target: FLAG-tagged Toll-like receptor 2 (TLR2-FLAG) (human) (UniProt O60603); assay: in vitro Ni-NTA pull-down with purified proteins, SDS-PAGE (FIG. 28B)
[2] = target: FLAG-tagged Toll-like receptor 2 (TLR2-FLAG) (human) (UniProt O60603); assay: in vitro Ni-NTA pull-down with purified TLR2-FLAG and His-tagged AmTARS, SDS-PAGE
[3] = target: endogenous TLR2 of human THP1 cells (human) (UniProt O60603); assay: His-tag pull-down of THP1 membrane or cytoplasmic extract with His-tagged AmTARS, LC-MS/MS
[4] = target: FLAG-tagged Toll-like receptor 2 (TLR2-FLAG) (human) (UniProt O60603); assay: pull-down from HEK 293T lysates, western blot (FIG. 28A)
[5] = target: FLAG-tagged Toll-like receptor 2 (TLR2-FLAG) (human) (UniProt O60603); assay: Strep-Tactin pull-down from HEK 293T cells co-expressing Strep-AmTARS and TLR2-FLAG, immunoblot

The chains behind the UniProt entries cited, without tags or fusion partners.
UniProt O60603: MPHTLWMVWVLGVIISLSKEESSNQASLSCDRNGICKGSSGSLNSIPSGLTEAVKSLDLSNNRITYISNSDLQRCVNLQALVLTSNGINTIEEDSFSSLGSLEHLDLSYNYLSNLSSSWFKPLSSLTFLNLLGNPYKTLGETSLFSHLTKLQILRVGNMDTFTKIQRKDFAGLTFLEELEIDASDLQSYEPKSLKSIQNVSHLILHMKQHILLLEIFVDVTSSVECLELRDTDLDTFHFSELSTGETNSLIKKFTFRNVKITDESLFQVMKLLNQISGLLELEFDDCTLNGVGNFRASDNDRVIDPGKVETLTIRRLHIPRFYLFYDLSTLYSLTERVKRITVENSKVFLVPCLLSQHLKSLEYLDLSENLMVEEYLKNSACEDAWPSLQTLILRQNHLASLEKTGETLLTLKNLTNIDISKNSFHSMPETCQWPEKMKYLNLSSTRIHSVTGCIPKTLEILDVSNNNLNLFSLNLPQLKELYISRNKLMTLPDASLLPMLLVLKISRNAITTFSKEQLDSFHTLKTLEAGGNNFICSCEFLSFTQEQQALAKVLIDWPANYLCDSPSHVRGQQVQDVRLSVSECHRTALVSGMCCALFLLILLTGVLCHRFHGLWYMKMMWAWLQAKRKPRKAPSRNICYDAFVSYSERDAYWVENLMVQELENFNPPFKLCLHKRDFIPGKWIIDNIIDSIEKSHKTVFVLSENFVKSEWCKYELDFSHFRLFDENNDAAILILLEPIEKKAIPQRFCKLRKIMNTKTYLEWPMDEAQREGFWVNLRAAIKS

binding [1] | binding [2] | binding [3] | binding [4] | binding [5] | Binder
binds | binds | binds |  |  | His-tagged Akkermansia muciniphila threonyl-tRNA synthetase (AmTARS-His) (enzyme, not shown: small tags and cut ends) MSEHKERKTLEERQQMSDLERLRHSCAHVLATAICRLWPDAQLAGGPAVDNGFYYDVELDHRISTEDFERIEEEMKKVVKENQVFQKEVISRADAMKMAESGELGALGPRSEPSRFKIDLLNDIPEDEEISLYRNGDFTDLCAGPHVGRTGNCKAFKIMSVASAFYKGDKNRPMLQRIYGTCFPNRTQLDEHLERLEEARRRDHRKLGRELGLFCIDESVGQGLILWKPKGALIRRSLQDFITEELDKLGYSQVYTPNIGKLDLYRTSGHFPYYQESQYAPIPERDAMEKLSQEGASCAELFNGLATGTIEGYMLKPMNCPHHIKIYANDAHSYRDLPVRLAEFGTVYRWEQSGELGGMTRVRGFTQDDAHIFCTPDQLAGEIRQCLGIVKTIFGTLGMTDYRVRLSMRDPESDKYVGSPENWDKAEQALREAAEWLGADYSEEAGEAAFYGPKIDFIVRDAIGREWQLGTVQVDYNLPERFDLHYTGADNKPHRPVMVHRAPFGSMERFTGLLIEHFEGKFPTWLSPEQVRVLPISDKVTDVAAAHRTALAARGVRVTVDETPDKIGAKIRNARLDRVPYMLVLGQREAEDGTVSVRHRDKGDLGAMPFEQFADLVAREIAERHISPVI
 |  |  | binds | binds | Strep-tagged Akkermansia muciniphila threonyl-tRNA synthetase (Strep-AmTARS) (enzyme, The tag is put N-terminal from the name 'Strep-AmTARS'; not shown: 2 x Strep tag from vector pEXPR-IBA105) MSEHKERKTLEERQQMSDLERLRHSCAHVLATAICRLWPDAQLAGGPAVDNGFYYDVELDHRISTEDFERIEEEMKKVVKENQVFQKEVISRADAMKMAESGELGALGPRSEPSRFKIDLLNDIPEDEEISLYRNGDFTDLCAGPHVGRTGNCKAFKIMSVASAFYKGDKNRPMLQRIYGTCFPNRTQLDEHLERLEEARRRDHRKLGRELGLFCIDESVGQGLILWKPKGALIRRSLQDFITEELDKLGYSQVYTPNIGKLDLYRTSGHFPYYQESQYAPIPERDAMEKLSQEGASCAELFNGLATGTIEGYMLKPMNCPHHIKIYANDAHSYRDLPVRLAEFGTVYRWEQSGELGGMTRVRGFTQDDAHIFCTPDQLAGEIRQCLGIVKTIFGTLGMTDYRVRLSMRDPESDKYVGSPENWDKAEQALREAAEWLGADYSEEAGEAAFYGPKIDFIVRDAIGREWQLGTVQVDYNLPERFDLHYTGADNKPHRPVMVHRAPFGSMERFTGLLIEHFEGKFPTWLSPEQVRVLPISDKVTDVAAAHRTALAARGVRVTVDETPDKIGAKIRNARLDRVPYMLVLGQREAEDGTVSVRHRDKGDLGAMPFEQFADLVAREIAERHISPVI

Source: patent US12636342B2, “TARS derived from Akkermansia muciniphila or fragment thereof, and use thereof” (KOREA RESEARCH INSTITUTE OF BIOSCIENCE AND BIOTECHNOLOGY, priority 2020, dated 2026)
